Measured values as given in PMC9515143, “Phosphorylation of Jhd2 by the Ras-cAMP-PKA(Tpk2) pathway regulates histone modifications and autophagy” (Nature Communications, 2022).
Substitutions are numbered along the chain they refer to. Results are given in words; binding and its absence hold for the method and conditions named. Binding seen in cells or lysates may run through a third protein. Some binding calls cover weakened binding; strength is not graded here. For part of these data: Sequences can lack the tags named with a protein. One block for each molecule: values may come before it.

Columns and labels:
[1] = target: T1, Tpk2-TAP (S. cerevisiae (budding yeast)) (UniProt P06245); assay: co-IP; Tpk2 immunoprecipitated from Tpk2-TAP cells, Jhd2 detected
T1 sequence: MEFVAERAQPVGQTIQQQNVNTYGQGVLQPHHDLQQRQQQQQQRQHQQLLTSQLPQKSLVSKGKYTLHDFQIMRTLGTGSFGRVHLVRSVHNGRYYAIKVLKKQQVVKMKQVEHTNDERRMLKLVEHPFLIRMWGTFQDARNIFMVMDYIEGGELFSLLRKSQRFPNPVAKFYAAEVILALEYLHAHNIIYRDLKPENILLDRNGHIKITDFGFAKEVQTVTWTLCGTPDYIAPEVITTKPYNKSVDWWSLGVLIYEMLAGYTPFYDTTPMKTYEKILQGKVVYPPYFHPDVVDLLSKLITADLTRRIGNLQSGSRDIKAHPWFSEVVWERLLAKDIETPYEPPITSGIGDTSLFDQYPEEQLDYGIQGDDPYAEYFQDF

[2] = target: T2, Jhd2-S321A, S340A-FLAG (S. cerevisiae (budding yeast)) (UniProt P47156); assay: co-IP; yeast whole cell extract digested with MNase, anti-FLAG M2 agarose 1 hr 4 °C, washed with 350 mM NaCl, 0.1% NP-40, Western blots; WT and tpk2Δ cells
T2 sequence: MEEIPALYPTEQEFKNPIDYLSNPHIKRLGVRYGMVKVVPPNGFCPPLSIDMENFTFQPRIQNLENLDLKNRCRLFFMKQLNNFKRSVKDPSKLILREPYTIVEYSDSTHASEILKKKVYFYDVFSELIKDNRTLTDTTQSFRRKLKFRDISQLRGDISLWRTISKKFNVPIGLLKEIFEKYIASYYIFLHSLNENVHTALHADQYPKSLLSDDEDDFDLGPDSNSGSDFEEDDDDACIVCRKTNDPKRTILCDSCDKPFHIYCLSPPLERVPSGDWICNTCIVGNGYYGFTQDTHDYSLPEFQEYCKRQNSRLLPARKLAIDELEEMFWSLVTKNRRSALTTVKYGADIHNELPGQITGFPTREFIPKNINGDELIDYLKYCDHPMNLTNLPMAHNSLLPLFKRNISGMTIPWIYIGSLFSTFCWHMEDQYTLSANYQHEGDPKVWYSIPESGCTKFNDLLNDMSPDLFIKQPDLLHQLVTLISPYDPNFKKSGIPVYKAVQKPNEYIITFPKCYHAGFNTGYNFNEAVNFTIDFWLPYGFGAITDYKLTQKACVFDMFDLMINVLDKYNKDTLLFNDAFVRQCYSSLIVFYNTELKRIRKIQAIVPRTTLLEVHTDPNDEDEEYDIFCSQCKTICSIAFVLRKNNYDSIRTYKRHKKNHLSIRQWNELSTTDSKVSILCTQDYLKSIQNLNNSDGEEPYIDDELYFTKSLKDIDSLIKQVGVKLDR

[3] = target: T3, Jhd2-FLAG (S. cerevisiae (budding yeast)) (UniProt P47156); assay: as above
T3 sequence (chain, phosphoserine at 321 and 340 (phosphorylated in vivo by Tpk2; extent not stated)): T2 sequence with A321S, A340S

[4] = target: T4, Tpk2-phosphorylated Jhd2-FLAG (S. cerevisiae (budding yeast)) (UniProt P47156); assay: co-IP; in vitro: purified Jhd2 on anti-FLAG beads, with or without phosphorylation by purified Tpk2, then incubated with Rpd3
T4 sequence (chain, phosphoserine at 321 and 340 (by purified Tpk2 in vitro)): T2 sequence with A321S, A340S

[5] = target: T2, Jhd2-S321A, S340A-FLAG (S. cerevisiae (budding yeast)); assay: as above
[6] = target: T3, Jhd2-FLAG (S. cerevisiae (budding yeast)); assay: as above

binding [1]: binds
Molecule: Jhd2 (in Tpk2-TAP cells) (from UniProt P47156 1-728) (enzyme)

binding [2]: binds | binding [3]: binds
B1: Rpd3 (enzyme, UniProt P32561 1-433)
chain: MVYEATPFDPITVKPSDKRRVAYFYDADVGNYAYGAGHPMKPHRIRMAHSLIMNYGLYKKMEIYRAKPATKQEMCQFHTDEYIDFLSRVTPDNLEMFKRESVKFNVGDDCPVFDGLYEYCSISGGGSMEGAARLNRGKCDVAVNYAGGLHHAKKSEASGFCYLNDIVLGIIELLRYHPRVLYIDIDVHHGDGVEEAFYTTDRVMTCSFHKYGEFFPGTGELRDIGVGAGKNYAVNVPLRDGIDDATYRSVFEPVIKKIMEWYQPSAVVLQCGGDSLSGDRLGCFNLSMEGHANCVNYVKSFGIPMMVVGGGGYTMRNVARTWCFETGLLNNVVLDKDLPYNEYYEYYGPDYKLSVRPSNMFNVNTPEYLDKVMTNIFANLENTKYAPSVQLNHTPRDAEDLGDVEEDSAEAKDTKGGSQYARDLHVEHDNEFY

binding [4]: binds | binding [5]: binds | binding [6]: binds
B2: Rpd3 (in vitro Co-IP) (enzyme, UniProt P32561 1-433)
chain: B1 chain
